# In PubChem BioAssay AID588497 (NMMLSC, 2011):
# In all, about 360,000 compounds went through this assay and about 780 (0.22%) were called active. Inconclusive results, whose numbers are uncertain, are shown with a selection of clear calls. Rule as the data show it: active = inhibition above about 35% (passing the limit was not always enough); inconclusive = no clear call, values can overlap the other calls.
# Test system: Botulinum neurotoxin type F light chain protease (Clostridium botulinum)
# Experiment: BoNT/F light chain protease inhibitors, primary screen, biochemical, flow cytometry, MLPCN library (AID 588497); also: plate controls were buffer without enzyme for full effect and enzyme alone for no effect
# Details: Multiplex microsphere protease cleavage assay, at 10 µM, active compounds read high
row,SMILES,inhibition
1,COc1cc(OC)cc(C(=O)N2CCC(C(=O)c3ccc(F)cc3)CC2)c1,inconclusive: -17.5%
2,O=c1oc2ccc3ccccc3c2c2c1SC(C(F)(F)F)C2 (stereo not drawn),inactive: 1.2%
3,Cc1cccc(C)c1NC(=O)C(C)N1CCCCC1 (stereo not drawn),inconclusive: -14.7%
4,COc1ccccc1CN1CCCC(CNC(=O)c2cccc3ccccc23)C1 (stereo not drawn),inconclusive: -1.9%
5,CCOC(=O)C1=CN(C(C)C)CCC1=O,inactive: -1.7%
6,CCOCCCn1c(=NC(=O)c2ccco2)c(C(=O)OCC)cc2c(=O)n3cccc(C)c3nc21,inconclusive: 30.7%
7,Cc1cccc(C(=O)Nc2scc(-c3ccc(Br)cc3)c2C(=O)O)c1,inconclusive: 11.6%
8,O=C(COc1cccc(C(F)(F)F)c1)Nc1ccc(S(=O)(=O)N2CCCCC2)cc1,inactive: -11.6%
9,Cc1ccc(CNC(=O)CCNS(=O)(=O)c2ccc(C)cc2)cc1,inconclusive: -1.4%
10,CCOC(=O)C1CCN(C(=O)Nc2ccc(OCc3ccccc3)cc2)CC1,inconclusive: -30.6%
11,CC(=O)NCCNC(=O)c1ccc(CSc2nc3ccccc3s2)cc1,inactive: -3.8%
12,COc1ccc(N2CCN(C(=O)C3CCN(S(=O)(=O)c4c(C)noc4/C=C/N(C)C)CC3)CC2)cc1,inactive: -12.7%
13,CCOc1ccc(NC(c2ccccc2)P(=O)(OC)OC)cc1 (stereo not drawn),inconclusive: 8.4%
14,Cc1cc(Nc2ccccc2)n2nc(C)c(-c3ccccc3)c2n1,inconclusive: 88.6%
15,CC1=C(C(=O)OC2CCCCC2)C(c2ccccc2)NC(=O)N1 (stereo not drawn),inconclusive: 16%
16,O=C(NCCCn1ccnc1)c1ccc(NS(=O)(=O)c2cccc([N+](=O)[O-])c2)cc1,inconclusive: 21.9%
17,CCn1ccnc1C(O)(c1ccccc1)c1ccccc1,inconclusive: -5%
18,C[C@H](O)[C@@H]1C(=O)N2CCc3ccc(N4CCN(C)CC4)cc3[C@@H]2C[C@@H]1N(C)C(=O)NC1CCCCC1,inactive: -8.9%
19,COc1ccc(/C=N/N2CCN(c3ccccc3OC)CC2)cc1Br,inconclusive: 38.7%
20,CCCNC(=O)c1nn2c(C(F)(F)F)cc(-c3ccccc3)nc2c1Cl,inconclusive: 22.2%

# Individual results from above:
# Under inhibition, CCn1ccnc1C(O)(c1ccccc1)c1ccccc1 is listed with inconclusive: -5%
# Under inhibition, C[C@H](O)[C@@H]1C(=O)N2CCc3ccc(N4CCN(C)CC4)cc3[C@@H]2C[C@@H]1N(C)C(=O)NC1CCCCC1 is listed with inactive: -8.9%
# Under inhibition, Cc1ccc(CNC(=O)CCNS(=O)(=O)c2ccc(C)cc2)cc1 is listed with inconclusive: -1.4%

# Further structures follow.

row,SMILES,inhibition
1,c1ccc(N2CCN(Cc3ccsc3)CC2)nc1,inactive: 6.3%
2,CN1CCN(c2nc3c(c(=O)n(C)c(=O)n3C)n2Cc2cccc(Br)c2)CC1,inconclusive: -21.8%
3,O=[N+]([O-])c1cccc(-c2nc(-c3ccccc3)c(-c3cccs3)[nH]2)c1,inactive: -1.3%
4,O=C(O)c1ccc(N/N=C/c2c(F)cccc2Cl)cc1,inconclusive: -3.4%
5,Cc1ccc(/C(O)=C2\C(=O)C(=O)N(C)C2c2ccc([N+](=O)[O-])cc2)cc1 (stereo not drawn),inconclusive: -13%
6,O=C(NCc1ccncc1)c1ccc(OCc2ccccc2)cc1,inconclusive: -9.1%
7,O=C1/C(=C\c2ccc(O)c(O)c2)SC(=S)N1Cc1ccccc1,inactive: -86.6%
8,COc1cccc(C(c2c(N)n(C)c(=O)n(C)c2=O)C(C)[N+](=O)[O-])c1 (stereo not drawn),inconclusive: 45.3%
9,OCc1cnc(SCc2ccccc2)n1Cc1ccccc1,inactive: 4.1%
10,Cc1ccc(N2CC(=O)Nc3c(sc4nc(C)cc(C)c34)C2=O)cc1,inconclusive: 28%
11,CS(=O)(=O)N(Cc1ccccc1)c1ccc(C(=O)Nc2ccc(C(N)=O)cc2)cc1,inconclusive: 12.3%
12,Cn1nc(C(F)(F)F)c(-c2ccc(F)cc2)c1NC(=O)Nc1ccc(F)cc1,inconclusive: 30.3%
13,FC(F)(F)Oc1ccc(NC(=S)Nc2ccc(OC(F)(F)F)cc2)cc1,inconclusive: 35.6%
14,O=c1[nH]c(=O)n(C2CCCCCC2)c(O)c1C=NCc1ccc(F)cc1,inconclusive: -10.7%
15,O=C(O)c1nn(CCOc2ccccc2F)c(=O)c2ccccc12,inactive: 15%
16,Cn1c(=O)c2sccc2n(Cc2ccc(Br)cc2)c1=O,inconclusive: -46.9%
17,CCOC(=O)Cc1csc(NC(=O)COc2ccc(C)cc2)n1,inactive: -3.5%
18,O=C(CCNC(=O)c1ccco1)NNC(=O)c1ccc(Br)cc1,inconclusive: -10.5%
19,C=CCOc1cccc(C2C(C(=O)c3ccc(C)o3)=C(O)C(=O)N2Cc2ccncc2)c1 (stereo not drawn),inconclusive: -4%
20,Cc1ccc(C(C)C)cc1S(=O)(=O)Nc1cccnc1,inconclusive: 10.5%

row,SMILES,inhibition
1,CC1(c2ccccc2)NC(=O)N(CC(=O)N2CCN(S(=O)(=O)c3c(F)cccc3F)CC2)C1=O (stereo not drawn),inactive: -1%
2,CN1C(=O)N(CN2CCCCC2)C2C1N(C)C(=O)N2CN1CCCCC1 (stereo not drawn),inactive: 6.1%
3,O=C1COc2ccc(-c3csc(NCC4CCCO4)n3)cc2N1 (stereo not drawn),inconclusive: -17.7%
4,CC(C)C(O)(C#CCN1CCCCCC1)c1ccccc1 (stereo not drawn),inactive: -2.5%
5,CCCCNC(=O)NNC(=O)c1ccoc1C,inconclusive: -23.8%
6,Cc1cccc(C2=NN(c3ccccc3)[C@@H](C(=O)N3CCOC3=O)[C@@H]2C)c1,inactive: -4.1%
7,Cc1cc(C)c2c(=O)[nH]c(SCC(=O)N3CCCCC3)nc2n1,inactive: 7.2%
8,CC(=O)Oc1ccc2c(=O)oc(-c3ccccc3)nc2c1,inconclusive: -18.6%
9,Cc1ccc(C2C(C#N)=C(N)SC(N)=C2C#N)c(C)c1,active: 71%
10,COCc1[nH]c(=S)c(C#N)cc1C(=O)OC,inconclusive: -10.2%
11,Cc1cccc(N2C(=O)C3CCCN3C2=S)c1C (stereo not drawn),inactive: -7.1%
12,COc1cc(C(=O)N(C)CCOc2ccc(C)cc2)ccc1OC1CCN(C(C)=O)CC1,inconclusive: 14.6%
13,CCOc1ccccc1NC(=O)c1ccc2c(c1)C(=O)N(C(C)(C)C)C2=O,inconclusive: -19.5%
14,COc1ccc(-c2nc3cc(C)ccn3c2NCC2CCCO2)cc1OC (stereo not drawn),inconclusive: -7.5%
15,C[C@@H]1NC(=O)N(c2ccc(F)cc2)C1=O,inconclusive: -10.6%
16,COc1ccccc1OCCNC(=O)C(c1ccccc1)c1ccccc1,inconclusive: -28.6%
17,CC(C)c1ccc(NC(=O)C2=NNC(=O)CC2)cc1,inconclusive: 186%
18,Fc1ccc(Nc2ncnc3ccccc23)cc1,inactive: -13.5%
